Experimental data: PMC9523048
No constants are given. Whether binding was seen depends on the method and setting. Binding seen in cells or lysates may run through a third protein. Some binding calls cover weakened binding; strength is not graded here.

Biological target: T1, P-JMJD1A (pS265-JMJD1A), endogenous in NIH-3T3 cells (mouse (endogenous in NIH-3T3)) (UniProt Q6PCM1)
T1 sequence (chain, phosphoserine at S265 (P-JMJD1A immunoblotting)): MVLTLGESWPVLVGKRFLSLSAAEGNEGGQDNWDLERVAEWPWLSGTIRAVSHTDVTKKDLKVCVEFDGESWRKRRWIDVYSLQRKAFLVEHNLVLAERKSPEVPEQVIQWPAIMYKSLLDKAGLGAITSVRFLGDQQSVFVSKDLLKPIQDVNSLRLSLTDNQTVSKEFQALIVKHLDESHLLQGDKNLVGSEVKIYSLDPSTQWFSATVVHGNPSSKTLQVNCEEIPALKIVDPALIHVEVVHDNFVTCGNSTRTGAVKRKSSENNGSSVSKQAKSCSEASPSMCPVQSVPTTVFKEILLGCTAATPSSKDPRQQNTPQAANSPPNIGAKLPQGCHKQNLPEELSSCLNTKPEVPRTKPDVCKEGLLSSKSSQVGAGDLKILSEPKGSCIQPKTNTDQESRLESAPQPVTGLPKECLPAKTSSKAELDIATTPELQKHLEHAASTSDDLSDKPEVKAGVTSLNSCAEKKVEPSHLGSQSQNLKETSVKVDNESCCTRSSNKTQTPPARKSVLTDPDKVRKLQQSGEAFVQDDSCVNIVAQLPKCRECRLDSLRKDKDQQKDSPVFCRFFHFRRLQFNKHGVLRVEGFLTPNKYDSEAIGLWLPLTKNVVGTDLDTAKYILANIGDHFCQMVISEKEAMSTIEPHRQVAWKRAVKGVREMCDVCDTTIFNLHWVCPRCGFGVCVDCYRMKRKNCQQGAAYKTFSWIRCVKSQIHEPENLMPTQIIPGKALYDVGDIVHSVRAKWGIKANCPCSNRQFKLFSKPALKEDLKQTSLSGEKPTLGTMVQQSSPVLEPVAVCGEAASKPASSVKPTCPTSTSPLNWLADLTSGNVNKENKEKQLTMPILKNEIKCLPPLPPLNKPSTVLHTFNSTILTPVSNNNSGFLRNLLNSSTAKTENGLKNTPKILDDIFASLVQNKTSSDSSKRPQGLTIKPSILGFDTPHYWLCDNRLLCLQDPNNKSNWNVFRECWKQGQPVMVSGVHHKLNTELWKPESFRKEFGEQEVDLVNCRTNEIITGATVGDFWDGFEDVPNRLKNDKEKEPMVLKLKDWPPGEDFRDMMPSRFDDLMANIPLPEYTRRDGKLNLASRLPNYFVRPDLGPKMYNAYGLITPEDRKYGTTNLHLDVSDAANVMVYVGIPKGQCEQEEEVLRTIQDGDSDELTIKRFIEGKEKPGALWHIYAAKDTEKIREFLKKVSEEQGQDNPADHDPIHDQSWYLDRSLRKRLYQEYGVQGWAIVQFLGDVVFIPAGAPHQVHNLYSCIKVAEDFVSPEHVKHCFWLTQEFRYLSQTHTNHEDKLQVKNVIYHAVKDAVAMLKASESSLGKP
Experiment: co-IP; whole cell lysates of NIH-3T3 cells after adipogenic induction with IBMX-containing differentiation cocktail; cell lysis buffer A (50 mM Tris-HCl pH 8.0, 0.1 mM EDTA, 5% glycerol, 100 mM KCl, 0.1% NP-40), 4 h at 4 °C; immunoblotting for P-JMJD1A and MYPT1

binding: binds
B1: myosin phosphatase target subunit 1 (MYPT1) (protein, UniProt Q9DBR7 1-1029)
chain: MKMADAKQKRNEQLKRWIGSETDLEPPVVKRQKTKVKFDDGAVFLAACSSGDTDEVLKLLHRGADINYANVDGLTALHQACIDDNVDMVKFLVENGANINQPDNEGWIPLHAAASCGYLDIAEFLIGQGAHVGAVNSEGDTPLDIAEEEAMEELLQNEVNRQGVDIEAARKEEERVMLRDARQWLNSGHISDVRHAKSGGTALHVAAAKGYTEVLKLLIQAGYDVNIKDYDGWTPLHAAAHWGKEEACRILVDNLCDMETVNKVGQTAFDVADEDILGYLEELQKKQTLLHSEKRDKKSPLIESTANMENNQPQKAFKNKETLIIEPEKNASRIESLEHEKADEEEEGKKDESSCSSEEDEEDDSESEAETDKTKPMASVSNAHTSSTQAAPAAVTAPTLSSNQGTPTSPVKKFPISTTKISPKEEERKDESPASWRLGLRKTGSYGALAEISASKEAQKEKDTAGVMRSASSPRLSSSLDNKEKEKDNKGTRLAYVTPTIPRRLASTSDIEEKENRESSSLRTSSSYTRRKWEDDLKKNSSINEGSTYHRSCSFGRRQDDLISCSVPSTTSTPTVTSAAGLQRSLPSSTSTAAKTPPGSSSAGTQSSTSNRLWAEDSTEKEKDSAPTAVTIPVAPTVVNAAAPSTTTLTTTTAGTVSEVRERRRSYLTPVRDEESESQRKARSRQARQSRRSTQGVTLTDLQEAEKTIGRSRSTRTREQENEEKEKEEKEKQDKEKQEEKKESEASREDEYKQKYSRTYDETYTRYRPVSTSSSSAPSSSSLSTLGSTLYASSQLNRPNSLVGITSAYSRGLAKENEREGEKKEEEKEGEDKSQPKSIRERRRPREKRRSTGVSFWTQDSDENEQERQSDTEDGSSKRETQTDSVSRYDSSSTSSSDRYDSLLGRSASYSYLEDRKPYSSRLEKDDSTDFKKLYEQILAENEKLKAQLHDTNMELTDLKLQLEKATQRQERFADRSQLEMEKRERRALERRISEMEEELKMLPDLKADNQRLKDENGALIRVISKLSK
